Source: US7696313B2 (priority 2000, dated 2010)
For some assays here: HELM strings list residues between dots; [ac] is acetyl, [am] amide, other brackets name non-standard units.

Columns and labels:
[1] = general procedure: Fmoc solid-phase peptide synthesis; Wang's alkoxy resin; HBTU, DIEA; conditions: whole synthesis, HPLC method A, 254 nm
[2] = general procedure: Fmoc solid-phase peptide synthesis; Wang's alkoxy resin (0.60 mmol/μm loading); HBTU, DIEA; conditions: for crude HPLC purity: 254 nm

## Fmoc-β-Ala-Ile-Ala-Leu-OH
[1]
  crude HPLC purity: 92%

## PEPTIDE1{[Suc].[bAla].I.A.L.[Dox]}$$$$V2.0
[2]; late stage modification step
  step yield: 78%
[2]; late stage modification step, HPLC method B
  crude HPLC purity: 86%

## Fmoc-β-Ala-Ile-Ala-Leu-Dox
[2]; conjugation step
  conjugation yield: 88%
[2]; conjugation step, HPLC method A
  crude HPLC purity: 92%
